This note sets out measurements from publication PMC10377513, “Goldilocks Dilemma: LPS Works Both as the Initial Target and a Barrier for the Antimicrobial Action of Cationic AMPs on E. coli” (Biomolecules, 2023).

Residues, ends and D or L forms follow the SMILES beside them.

This data set has as its system E. coli CCUG 70662 live cells. The data set is described as follows: Live cell NMR (1H signal attenuation on cell titration). The conditions noted are these: fit parameter of Equation (6). Type of data set: binding.
The mark [1] stands for this setting: E. coli CCUG 70662+ (grown with 4 µg/mL colistin).
The mark [2] stands for this setting: E. coli CCUG 70662- (grown without colistin).

With `NCCCC[C@@H]1NC(=O)[C@H](CCCCN)NC(=O)[C@H](Cc2c[nH]c3ccccc23)NC(=O)[C@H](Cc2c[nH]c3ccccc23)NC(=O)[C@H](Cc2c[nH]c3ccccc23)NC(=O)[C@H](CCCCN)NC1=O` [c(WWWKKK)] (HELM PEPTIDE1{W.W.W.K.K.K}$PEPTIDE1,PEPTIDE1,1:R1-6:R2$$$V2.0), the “γB/γF-1 ratio (line widths of bound and free AMP, from fit)” value reads like this: under setting [1], 0.197; under setting [2], 0.317.
On the same counts, the results for `N=C(N)NCCC[C@@H]1NC(=O)[C@H](CCCNC(=N)N)NC(=O)[C@H](Cc2c[nH]c3ccccc23)NC(=O)[C@H](Cc2c[nH]c3ccccc23)NC(=O)[C@H](Cc2c[nH]c3ccccc23)NC(=O)[C@H](CCCNC(=N)N)NC1=O` [c(WWWRRR)] (HELM PEPTIDE1{W.W.W.R.R.R}$PEPTIDE1,PEPTIDE1,1:R1-6:R2$$$V2.0) are 0.238 and 0.473.
The like results for `N=C(N)NCCC[C@@H]1NC(=O)[C@H](Cc2c[nH]c3ccccc23)NC(=O)[C@H](CCCNC(=N)N)NC(=O)[C@H](Cc2c[nH]c3ccccc23)NC(=O)[C@H](CCCNC(=N)N)NC(=O)[C@H](Cc2c[nH]c3ccccc23)NC1=O` [c(WRWRWR)] (HELM PEPTIDE1{W.R.W.R.W.R}$PEPTIDE1,PEPTIDE1,1:R1-6:R2$$$V2.0) were, in that order, 1.062 and 0.549.
The like results for `CC(C)C[C@@H]1NC(=O)[C@@H](CCCNC(=N)N)NC(=O)[C@H](CCCCN)NC(=O)[C@H](CC(N)=O)NC(=O)[C@@H](Cc2c[nH]c3ccccc23)NC(=O)[C@H](Cc2c[nH]c3ccccc23)NC1=O` [c(LWwNKr)] (HELM PEPTIDE1{L.W.[dW].N.K.[dR]}$PEPTIDE1,PEPTIDE1,1:R1-6:R2$$$V2.0) were, in that order, 4.990 and 5.202.
`NCCCC[C@@H]1NC(=O)[C@H](Cc2c[nH]c3ccccc23)NC(=O)[C@H](CCCCN)NC(=O)[C@H](Cc2c[nH]c3ccccc23)NC(=O)[C@H](CCCCN)NC(=O)[C@H](Cc2c[nH]c3ccccc23)NC1=O` [c(WKWKWK)] (HELM PEPTIDE1{W.K.W.K.W.K}$PEPTIDE1,PEPTIDE1,1:R1-6:R2$$$V2.0): the “γB/γF-1 ratio (line widths of bound and free AMP, from fit)” value reads like this: under setting [1], 0.295; under setting [2], 0.170.
